Source: patent US20130203649A1, “INHIBITORS OF TLR SIGNALING BY TARGETING TIR DOMAIN INTERFACES” (UNIVERSITY OF MARYLAND, BALTIMORE, priority 2012, published 2013)
Entries after “also recorded” stand apart in the source; their conditions may differ. At least one peptide structure holds a part that was inferred or is arguable (an end, a ring closure or a residue). Some of these results come from one statement about several compounds together. No end group written: not given here.

Protein sequences, listed by entry. Tags and fused reporters are not part of them. Residues count along the entry.
UniProt Q9QUN7, 25-784: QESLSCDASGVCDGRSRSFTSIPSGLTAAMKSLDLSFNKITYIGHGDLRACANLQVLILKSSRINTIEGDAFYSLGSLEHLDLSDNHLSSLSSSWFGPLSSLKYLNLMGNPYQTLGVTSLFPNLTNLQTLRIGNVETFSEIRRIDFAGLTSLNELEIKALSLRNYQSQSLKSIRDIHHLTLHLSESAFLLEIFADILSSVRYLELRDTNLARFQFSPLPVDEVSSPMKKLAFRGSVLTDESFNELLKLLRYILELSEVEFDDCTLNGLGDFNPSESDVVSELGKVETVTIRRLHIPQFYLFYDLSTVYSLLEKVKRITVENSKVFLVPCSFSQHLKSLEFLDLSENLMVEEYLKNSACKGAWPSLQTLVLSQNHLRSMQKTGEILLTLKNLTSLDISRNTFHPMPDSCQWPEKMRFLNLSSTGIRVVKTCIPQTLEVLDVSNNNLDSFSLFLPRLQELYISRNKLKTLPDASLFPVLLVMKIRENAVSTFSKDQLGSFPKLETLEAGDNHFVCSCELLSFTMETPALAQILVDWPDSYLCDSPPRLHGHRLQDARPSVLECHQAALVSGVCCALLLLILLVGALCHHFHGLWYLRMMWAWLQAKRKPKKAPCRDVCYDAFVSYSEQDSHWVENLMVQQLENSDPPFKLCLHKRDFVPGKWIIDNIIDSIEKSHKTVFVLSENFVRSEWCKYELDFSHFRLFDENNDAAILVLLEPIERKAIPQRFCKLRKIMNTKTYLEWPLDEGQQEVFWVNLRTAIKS

Key:
[1] = biological target: T1, TLR2 (Mus musculus, UniProt Q9QUN7); assay: Inhibition of TLR2 signaling in thioglycollate-elicited mouse macrophages (effective concentration, TLR2 agonists P3C/P2C); type: cell-based; settings: for P3C- or P2C-induced p38, ERK, or JNK MAPK phosphorylation: 20 μM peptide, 30 min; for Inhibition of TLR2 signaling (overall): mouse macrophages, P3C/P2C
T1 construct: Primary peritoneal macrophages were obtained by peritoneal lavage; endogenous in cells; host or cells: thioglycollate-elicited mouse peritoneal macrophages
Method: C57BL/6J mice were obtained from The Jackson Laboratory (Bar Harbor, Me.). Primary peritoneal macrophages were obtained by peritoneal lavage 4 days after intraperitoneal injection (3 ml) of sterile 3% thioglycolate broth. Washed cells were resuspended in RPMI 1640 which contained 2% FBS, 1% penicillin:streptomycin and 2 mM L-glutamine. After plating, cells were incubated overnight at 37° C. and then washed with PBS to remove non-adherent cells. Cells were exposed to peptides 30 min before stimulation with a TLR agonist.
Protein-free Escherichia coli K235 LPS was used at final concentration of 10 ng/ml to stimulate cells. S-[2,3-bis(palmitoyloxy)-(2-RS)-propyl]-N-palmitoyl-(R)-Cys-Ser-Lys4-OH (P3C) and S-[2,3-bis(palmitoyloxy)-(2-RS)-propyl]-[R]-Cys-Ser-Lys4-OH (P2C) were purchased from EMC microcollections GmbH (Tubingen, Germany) and used for cell stimulation at 500 and 50 ng/ml, respectively. Phospho-ERK1/2 and phospho-JNK1/2 rabbit Abs were obtained from Cell Signaling Technology, Inc. β-actin rabbit Ab were from SantaCruz Biotechnology, Inc.
Because of the role TRAP plays in TLR2 signaling, TIRAP TIR-derived decoy peptide effects on TLR2-induced cytokine mRNA expression were examined. Thioglycollate-elicited mouse macrophages were stimulated either by P2C, an agonist that induces signaling through TLR2/TLR6 heterodimerization, or P3C, a TLR2/TLR1 agonist, and effects of TIRAP TR-derived decoy peptides on induction of cytokine mRNA were examined. […] To confirm the inhibitory effect of TR3 and TR6 on P3C-induced signaling, IL-6 and TNF-α concentration was measured in macrophage supernatants collected 5 h after stimulation of cells with P3C. […] Concordantly, both TR3 and TR6 diminished the P3C-induced ERK phosphorylation (FIG. 3D).
C57BL/6J mice were obtained from The Jackson Laboratory (BarHarbor, Me.). Harvesting, culturing, and stimulation of peritoneal macrophages were described in previous publications (1, 18, 19). Escherichia coli K235 LPS (34) was used at the final concentration of 100 ng/ml. The 2,3-bis(palmitoyloxy)-(2-RS)-propyl-N-palmitoyl-(R)-Cys-Ser-Lys4-OH (P3C) and S[2,3-bis(palmitoyloxy)-(2-RS)-propyl]-[R]-Cys-Ser-Lys4-OH (P2C) (EMC Microcollections, Tubingen, Germany) were used at 500 and 50 ng/ml, respectively. Oligonucleotide (ODN) 1668 and low m.w. polyinosinic-polycytidylic acid [poly(I:C)] in complex with LyoVec were obtained from InvivoGen; these agonists were used at 2.5 μM and 400 ng/ml, respectively.

[2] = system: C57BL/6J mice; assay: In vivo efficiency of decoy peptides (Table 1; LPS challenge in mice); design: species or system mouse
Method: FIG. 4. Effect of select TRAP decoy peptides on TNF-α and IL-6 in blood following an ip LPS challenge. C57BL/6J mice were injected with TR5, TR6, or TR7 peptide or mock-treated 1 hour before injection of purified E. coli LPS. Peptides and LPS were injected to mice intraperitonealy 10 nmol or 1 μg per gram of animal weight, correspondingly.
(§1) FIG. 10. […] (A-E) C57BL/6J mice were injected i.p. with purified Escherichia coli K235 LPS (1 μg/g) or PBS. Peptides (10 nmol/g of animal weight) were injected i.p. (A, B, D, E) or i.v. (C) 1 h before (A, B, and C) or 30 min after (D, E) i.p. injection of LPS. Data in panels A and D show plasma IL-6 and TNF-α levels measured 2 h after LPS challenge. Peptide TM8/9 was used as a non-inhibitory control peptide. […] The statistical significance of changes in mortality and survival time was determined by the Mantel Cox log-rank test using GraphPad Prism software (Version 5.04). *p<0.01.
Eight-week-old C57BL/6J mice were injected with 1 or 17.5 μg/g animal weight of E. coli K235 LPS i.p. Peptides reconstituted in PBS were administered i.p. or i.v. Control groups received equivalent volume of solvent (PBS). […] The plasma samples were obtained and kept frozen until TNF-α and IL-6 were measured by ELISA. Survival of animals was monitored every 6-16 h after LPS challenge. […]

[3] = system: TLR4; assay: LPS-induced STAT1-Y701 phosphorylation in macrophages (immunoblotting); type: cell-based, mouse; settings: 2 h after LPS
[4] = system: RIG-I/MDA-5; assay: poly(I:C)/LyoVec-induced cell activation (STAT1-Y701 phosphorylation, IFN-β mRNA) in macrophages; type: cell-based, mouse; settings: 20 μM peptide; poly(I:C)/LyoVec 400 ng/ml
[5] = system: C57BL/6J mice; assay: Plasma TNF-α and IL-6 after sublethal LPS challenge in C57BL/6J mice; type: in vivo, mouse; settings: for Plasma TNF-α and IL-6 / Circulating TNF-α and IL-6: 10 nmol/g i.p. 30 min after LPS; for Plasma TNF-α and IL-6: 2 h after LPS or thereafter; for Circulating TNF-α and IL-6: measured 1 h after LPS; for Plasma IL-6 and TNF-α levels relative to PBS-treated group: 10 nmol/g i.p. 1 h before LPS 1 μg/g i.p., 2 h after LPS; for Circulating IL-6 and TNF-α levels at every time point: 10 nmol/g i.p. 1 h before LPS, 8 h observation; for LPS-induced systemic cytokine response in vivo: sublethal LPS 1 μg/g, peptide 10 nmol/g
Method: as §1, with “peptide. Data represent the means±s.e.m. for 6-12 blood samples obtained in at least three independent experiments. *p<0.01. (F, G) C57BL/6J mice were challenged i.p. with a lethal LPS dose (17.5 μg/g). Peptides (10 nmol/g) were injected i.p. 1 h before LPS challenge.” for “peptide.”
Eight-week-old C57BL/6J mice were injected with 1 or 17.5 μg/g animal weight of E. coli K235 LPS i.p. Peptides reconstituted in PBS were administered i.p. or i.v. Control groups received equivalent volume of solvent (PBS). The blood samples were collected 1, 2, 4, and 8 h, or 2, 8, and 24 h after LPS challenge. The plasma samples were obtained and kept frozen until TNF-α and IL-6 were measured by ELISA. Survival of animals was monitored every 6-16 h after LPS challenge. All animal experiments were carried out with institutional approval.
We next studied whether peptides identified as inhibitory in in vitro tests are effective in vivo. C57BL/6J mice were challenged i.p. with a sublethal LPS dose (1 μg/g animal weight), and plasma TNF-α and IL-6 levels were monitored for 8 h after the challenge. In the first series of experiments, we injected 10 nmol/g TM4 or TM6 i.p. 1 h before LPS challenge. The 10 nmol/g dose corresponds to 38, 41, and 32 mg/kg TM4, TM6, and TM4-ΔC, respectively.

Which “P3C- or P2C-induced p38, ERK, or JNK MAPK phosphorylation” value [1] does the source give for RQIKIWFQNRRMKWKKENFLRDTWCNFQFY [TM6] here?
The value was “did not inhibit”.

What about the “Inhibition of TLR2 signaling (overall)” value [1] of the same sequence?
Its value is “but not”.

And the In vivo efficiency [2]?
Its In vivo efficiency is “yes, i.p”.

What about the “LPS-induced STAT1-Y701 phosphorylation” value [3] of the same sequence?
The value was “block; also recorded: inhibit”.

What about the “Cell activation induced by RIG-I/MDA-5 agonist poly(I:C)” value [4] of the same sequence?
Its value is “Neither peptide blocked; also recorded: but not”.

And the “Plasma TNF-α and IL-6” value [5]?
Its value is “markedly diminished”.

And the “Circulating TNF-α and IL-6” value [5]?
Its value is “did not affect”.

What about the “Plasma IL-6 and TNF-α levels relative to PBS-treated group” value [5] of the same sequence?
The value was 5-15%.

What about the “Circulating IL-6 and TNF-α levels at every time point” value [5] of the same sequence?
Its value is “significantly decreased”.

And the “LPS-induced systemic cytokine response in vivo” value [5]?
The value was “strongly suppress; also recorded: effectively suppress”.

For RQIKIWFQNRRMKWKKIVFAEMPCGRLHLQ [TM4], which “P3C- or P2C-induced p38, ERK, or JNK MAPK phosphorylation” value [1] is on record?
Its value is “did not inhibit”.

What about the “Inhibition of TLR2 signaling (overall)” value [1] of the same sequence?
Its value is “but not”.

And the In vivo efficiency [2]?
The In vivo efficiency was “yes, i.p”.

And the “LPS-induced STAT1-Y701 phosphorylation” value [3]?
The value was “block; also recorded: inhibit”.

And the “Cell activation induced by RIG-I/MDA-5 agonist poly(I:C)” value [4]?
The value was “Neither peptide blocked; also recorded: but not”.

And the “Plasma TNF-α and IL-6” value [5]?
The value was “markedly diminished”.

And the “Circulating TNF-α and IL-6” value [5]?
Its value is “did not affect”.

And the “Plasma IL-6 and TNF-α levels relative to PBS-treated group” value [5]?
Its value is 5-15%.

And the “Circulating IL-6 and TNF-α levels at every time point” value [5]?
The value was “significantly decreased”.

What about the “Circulating IL-6 and TNF-α levels” value ([5]; 10 nmol/g i.v., LPS i.p., 8-h observation) of the same sequence?
Its value is “significantly lowered”.

What about the “Efficiency with respect to circulating IL-6 at 4- or 8-h time points” value ([5]; dose increased to 25 nmol/g) of the same sequence?
Its value is “did not augment”.

What about the “Circulating TNF-α” value ([5]; lower dose 2.5 nmol/g) of the same sequence?
The value was “equally strongly”.

What about the “LPS-induced systemic cytokine response in vivo” value [5] of the same sequence?
The value was “strongly suppress; also recorded: effectively suppress”.
